{"sequences": {"note": "Chains of the proteins cited; added tags and fusions are not shown.", "UniProt Q03468": "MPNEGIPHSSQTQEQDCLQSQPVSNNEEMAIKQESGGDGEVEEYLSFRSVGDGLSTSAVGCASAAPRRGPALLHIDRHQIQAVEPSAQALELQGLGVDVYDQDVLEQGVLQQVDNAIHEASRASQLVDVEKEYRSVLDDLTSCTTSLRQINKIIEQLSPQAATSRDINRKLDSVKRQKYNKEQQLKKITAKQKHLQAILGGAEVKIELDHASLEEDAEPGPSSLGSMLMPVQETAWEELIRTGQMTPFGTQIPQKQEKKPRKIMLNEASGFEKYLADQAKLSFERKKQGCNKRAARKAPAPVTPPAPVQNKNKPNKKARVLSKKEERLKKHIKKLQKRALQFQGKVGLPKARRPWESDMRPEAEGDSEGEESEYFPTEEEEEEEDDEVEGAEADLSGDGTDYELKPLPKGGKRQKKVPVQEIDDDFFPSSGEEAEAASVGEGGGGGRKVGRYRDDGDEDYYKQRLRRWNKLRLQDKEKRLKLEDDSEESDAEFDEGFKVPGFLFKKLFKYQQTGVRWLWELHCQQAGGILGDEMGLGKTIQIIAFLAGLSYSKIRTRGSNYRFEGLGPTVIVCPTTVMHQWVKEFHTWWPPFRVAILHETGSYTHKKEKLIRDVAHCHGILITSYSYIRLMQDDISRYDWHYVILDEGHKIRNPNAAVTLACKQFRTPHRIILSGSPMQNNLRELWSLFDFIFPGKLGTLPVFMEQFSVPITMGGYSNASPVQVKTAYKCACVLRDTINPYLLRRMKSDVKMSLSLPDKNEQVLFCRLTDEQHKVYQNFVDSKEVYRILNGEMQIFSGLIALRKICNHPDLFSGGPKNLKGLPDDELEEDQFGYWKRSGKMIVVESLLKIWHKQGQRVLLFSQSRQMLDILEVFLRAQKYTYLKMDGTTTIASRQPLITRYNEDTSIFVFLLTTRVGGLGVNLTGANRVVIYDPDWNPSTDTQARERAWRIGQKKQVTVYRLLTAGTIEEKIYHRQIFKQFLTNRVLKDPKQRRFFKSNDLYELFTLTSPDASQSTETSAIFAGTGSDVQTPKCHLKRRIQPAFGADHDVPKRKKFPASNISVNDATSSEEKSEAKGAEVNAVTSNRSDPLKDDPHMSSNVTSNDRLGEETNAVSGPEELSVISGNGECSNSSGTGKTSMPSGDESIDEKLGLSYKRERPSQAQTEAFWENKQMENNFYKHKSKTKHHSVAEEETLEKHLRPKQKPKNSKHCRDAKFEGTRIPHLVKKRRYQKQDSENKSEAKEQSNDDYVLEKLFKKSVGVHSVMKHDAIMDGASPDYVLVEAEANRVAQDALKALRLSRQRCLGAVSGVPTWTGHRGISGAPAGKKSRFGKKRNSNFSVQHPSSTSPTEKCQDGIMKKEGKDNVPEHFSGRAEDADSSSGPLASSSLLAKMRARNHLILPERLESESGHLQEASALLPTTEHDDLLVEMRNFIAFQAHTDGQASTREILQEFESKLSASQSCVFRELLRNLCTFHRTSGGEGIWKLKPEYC"}, "source": "paper PMC4451243", "binders": {"B1": {"name": "Myc-tagged CSTF1 (protein, UniProt Q05048 1-431)", "chain": "MYRTKVGLKDRQQLYKLIISQLLYDGYISIANGLINEIKPQSVCAPSEQLLHLIKLGMENDDTAVQYAIGRSDTVAPGTGIDLEFDADVQTMSPEASEYETCYVTSHKGPCRVATYSRDGQLIATGSADASIKILDTERMLAKSAMPIEVMMNETAQQNMENHPVIRTLYDHVDEVTCLAFHPTEQILASGSRDYTLKLFDYSKPSAKRAFKYIQEAEMLRSISFHPSGDFILVGTQHPTLRLYDINTFQCFVSCNPQDQHTDAICSVNYNSSANMYVTGSKDGCIKLWDGVSNRCITTFEKAHDGAEVCSAIFSKNSKYILSSGKDSVAKLWEISTGRTLVRYTGAGLSGRQVHRTQAVFNHTEDYVLLPDERTISLCCWDSRTAERRNLLSLGHNNIVRCIVHSPTNPGFMTCSDDFRARFWYRRSTTD"}, "B2": {"name": "Myc-tagged DDX23 (protein, UniProt Q9BUQ8 1-820)", "chain": "MAGELADKKDRDASPSKEERKRSRTPDRERDRDRDRKSSPSKDRKRHRSRDRRRGGSRSRSRSRSKSAERERRHKERERDKERDRNKKDRDRDKDGHRRDKDRKRSSLSPGRGKDFKSRKDRDSKKDEEDEHGDKKPKAQPLSLEELLAKKKAEEEAEAKPKFLSKAEREAEALKRRQQEVEERQRMLEEERKKRKQFQDLGRKMLEDPQERERRERRERMERETNGNEDEEGRQKIREEKDKSKELHAIKERYLGGIKKRRRTRHLNDRKFVFEWDASEDTSIDYNPLYKERHQVQLLGRGFIAGIDLKQQKREQSRFYGDLMEKRRTLEEKEQEEARLRKLRKKEAKQRWDDRHWSQKKLDEMTDRDWRIFREDYSITTKGGKIPNPIRSWKDSSLPPHILEVIDKCGYKEPTPIQRQAIPIGLQNRDIIGVAETGSGKTAAFLIPLLVWITTLPKIDRIEESDQGPYAIILAPTRELAQQIEEETIKFGKPLGIRTVAVIGGISREDQGFRLRMGCEIVIATPGRLIDVLENRYLVLSRCTYVVLDEADRMIDMGFEPDVQKILEHMPVSNQKPDTDEAEDPEKMLANFESGKHKYRQTVMFTATMPPAVERLARSYLRRPAVVYIGSAGKPHERVEQKVFLMSESEKRKKLLAILEQGFDPPIIIFVNQKKGCDVLAKSLEKMGYNACTLHGGKGQEQREFALSNLKAGAKDILVATDVAGRGIDIQDVSMVVNYDMAKNIEDYIHRIGRTGRAGKSGVAITFLTKEDSAVFYELKQAILESPVSSCPPELANHPDAQHKPGTILTKKRREETIFA"}, "B3": {"name": "Myc-tagged PRPF3 (protein, UniProt O43395 1-683)", "chain": "MALSKRELDELKPWIEKTVKRVLGFSEPTVVTAALNCVGKGMDKKKAADHLKPFLDDSTLRFVDKLFEAVEEGRSSRHSKSSSDRSRKRELKEVFGDDSEISKESSGVKKRRIPRFEEVEEEPEVIPGPPSESPGMLTKLQIKQMMEAATRQIEERKKQLSFISPPTPQPKTPSSSQPERLPIGNTIQPSQAATFMNDAIEKARKAAELQARIQAQLALKPGLIGNANMVGLANLHAMGIAPPKVELKDQTKPTPLILDEQGRTVDATGKEIELTHRMPTLKANIRAVKREQFKQQLKEKPSEDMESNTFFDPRVSIAPSQRQRRTFKFHDKGKFEKIAQRLRTKAQLEKLQAEISQAARKTGIHTSTRLALIAPKKELKEGDIPEIEWWDSYIIPNGFDLTEENPKREDYFGITNLVEHPAQLNPPVDNDTPVTLGVYLTKKEQKKLRRQTRREAQKELQEKVRLGLMPPPEPKVRISNLMRVLGTEAVQDPTKVEAHVRAQMAKRQKAHEEANAARKLTAEQRKVKKIKKLKEDISQGVHISVYRVRNLSNPAKKFKIEANAGQLYLTGVVVLHKDVNVVVVEGGPKAQKKFKRLMLHRIKWDEQTSNTKGDDDEESDEEAVKKTNKCVLVWEGTAKDRSFGEMKFKQCPTENMAREHFKKHGAEHYWDLALSESVLESTD"}}, "note": "Results are given in words; binding and its absence hold for the method and conditions named. In cells and extracts the contact can be indirect. Some entries that bind do so weakly or less than the wild type. Where a sequence is shown, tags or fusion partners need not be part of it."}
{"molecular_target": "Flag-tagged CSB (human) (UniProt Q03468)", "experiment": "co-IP; lysates (RIPA buffer) of CSIAN cells co-transfected with Flag-tagged CSB and a Myc-tagged protein, 24 hr post transfection; anti-Flag M2-agarose overnight; Western blot with anti-Myc"}
{"binder": "B1", "binding": "binds"}
{"binder": "B2", "binding": "binds"}
{"binder": "B3", "binding": "binds"}
